Reference: PubChem BioAssay AID1259254 (NCATS, 2017)

Purpose: 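Genome-wide screen for genes that prevent DNA re-replication in cancer cells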 (primary screen)
Cell system: human HCT116 colorectal cancer cells
Reagent: single siRNA against human genes
Duration: 3 days
Detection: 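Imaged Hoechst DNA stain sorts each cell into a cycle phase by DNA amount; per plate, G2 fraction set to 0% for non-targeting and 100% for GMNN siRNA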
Scale: G2 robust z-score and G2 cells, % of GMNN control: higher = more G2 cells, more excess DNA replication
Hit rule: 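An siRNA counts as active if its G2 robust z-score lies at least 5 MADs above the screen median; here such calls match roughly 38% of GMNN control or more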
The deposit covers about 59,000 reagents; this is a random part of them. About 1,550 of all reagents (2.6%) were called active. 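G2 share is only a proxy for re-replication; each gene was hit by three separate siRNAs, and active genes were retested.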 The numbers tell different reagents against one gene apart. Not all columns of the deposit are shown. Not given: the amount of reagent.

Silencing of CCT8 #1 gave: G2 robust z-score 0.418; G2 cells, % of GMNN control 5.91; inactive. Against CCT8 #2, the entry reads G2 robust z-score 3.97; G2 cells, % of GMNN control 30.9; inactive. CCT8 #3 showed G2 robust z-score 1.09; G2 cells, % of GMNN control 10.6; inactive. Knock-down of SERPINA12 #1 resulted in: G2 robust z-score 0.821; G2 cells, % of GMNN control 8.74; inactive. SERPINA12 #2 scored G2 robust z-score 0.695; G2 cells, % of GMNN control 7.86; inactive. SERPINA12 #3 showed G2 robust z-score -0.794; G2 cells, % of GMNN control -2.62; inactive.

After knock-down of HMGN1P38 #1 the results were G2 robust z-score 0.306; G2 cells, % of GMNN control 5.12; inactive. For HMGN1P38 #2 the deposit lists G2 robust z-score 1.7; G2 cells, % of GMNN control 14.9; inactive. HMGN1P38 #3 showed G2 robust z-score 0.0294; G2 cells, % of GMNN control 3.17; inactive. Silencing of EEF1A1 #1 gave: G2 robust z-score -0.379; G2 cells, % of GMNN control 0.298; inactive. Silencing of EEF1A1 #2 came out at: G2 robust z-score -0.101; G2 cells, % of GMNN control 2.26; inactive. With knock-down of EEF1A1 #3 the results were G2 robust z-score 0.343; G2 cells, % of GMNN control 5.38; inactive.

Against CCDC184 #1, the entry reads G2 robust z-score -0.188; G2 cells, % of GMNN control 1.64; inactive. Knock-down of CCDC184 #2 resulted in: G2 robust z-score -0.285; G2 cells, % of GMNN control 0.959; inactive. Knock-down of CCDC184 #3 resulted in: G2 robust z-score 0.696; G2 cells, % of GMNN control 7.87; inactive. Knock-down of FLII #1 resulted in: G2 robust z-score 1.45; G2 cells, % of GMNN control 13.2; inactive. FLII #2 gave G2 robust z-score -0.702; G2 cells, % of GMNN control -1.97; inactive. Silencing of FLII #3 came out at: G2 robust z-score 2.91; G2 cells, % of GMNN control 23.5; inactive.

For DOHH #1, the entry reads G2 robust z-score -0.957; G2 cells, % of GMNN control -3.77; inactive. DOHH #2 showed G2 robust z-score 0.178; G2 cells, % of GMNN control 4.22; inactive. DOHH #3 showed G2 robust z-score -0.726; G2 cells, % of GMNN control -2.14; inactive. S1PR1 #1 showed G2 robust z-score -0.966; G2 cells, % of GMNN control -3.83; inactive. After knock-down of S1PR1 #2, the record shows G2 robust z-score 1.28; G2 cells, % of GMNN control 12; inactive. Depletion of S1PR1 #3 came out at: G2 robust z-score -0.0107; G2 cells, % of GMNN control 2.89; inactive.

With knock-down of UBTFL7 #1 the results were G2 robust z-score -0.754; G2 cells, % of GMNN control -2.34; inactive. With knock-down of UBTFL7 #2, the record shows G2 robust z-score 1.27; G2 cells, % of GMNN control 11.9; inactive. Silencing of UBTFL7 #3 resulted in: G2 robust z-score 1.09; G2 cells, % of GMNN control 10.6; inactive. Against NOMO2 #1, the values are G2 robust z-score 0.415; G2 cells, % of GMNN control 5.89; inactive. NOMO2 #2 gave G2 robust z-score -0.583; G2 cells, % of GMNN control -1.14; inactive. NOMO2 #3 gave G2 robust z-score -0.592; G2 cells, % of GMNN control -1.2; inactive.

Entries above whose target name begins with S or s (6):
SERPINA12 #1 | G2 robust z-score = 0.821; G2 cells, % of GMNN control = 8.74; outcome = inactive
SERPINA12 #2 | G2 robust z-score = 0.695; G2 cells, % of GMNN control = 7.86; outcome = inactive
SERPINA12 #3 | G2 robust z-score = -0.794; G2 cells, % of GMNN control = -2.62; outcome = inactive
S1PR1 #1 | G2 robust z-score = -0.966; G2 cells, % of GMNN control = -3.83; outcome = inactive
S1PR1 #2 | G2 robust z-score = 1.28; G2 cells, % of GMNN control = 12; outcome = inactive
S1PR1 #3 | G2 robust z-score = -0.0107; G2 cells, % of GMNN control = 2.89; outcome = inactive
